The other results are listed elsewhere or left out. For some assays here: Construct or isoform of the protein are uncertain.

Among the data in PMC5996148 are binding signal values, retold here.

Among the test systems are CLDN2 (human); CLTB (human); CLUL1 (human); CNIH (human); CNNM1 (human); CNR2 (human); COASY (human); COBRA1 (human); COG8 (human); COMT (human); COPZ1 (human); COX4I2 (human); COX4NB (human); COX5B (human); CRABP2 (human); CRADD (human); CRLF3 (human); CRYAA (human).
Experiment in all cases: protein microarray (ProtoArray v5.0), streptavidin-Alexa Fluor 647
Conditions in all cases: 3'-biotin; 20 mM Tris (pH 7.5), 5 mM MgCl2, 100 mM KCl, 0.1% Tween-20, A/T-rich and random oligonucleotide blockers; temperature not stated; high values mean tight binding

The target in a further assay is T1, CLIP4 (UniProt Q8N3C7).
T1 sequence: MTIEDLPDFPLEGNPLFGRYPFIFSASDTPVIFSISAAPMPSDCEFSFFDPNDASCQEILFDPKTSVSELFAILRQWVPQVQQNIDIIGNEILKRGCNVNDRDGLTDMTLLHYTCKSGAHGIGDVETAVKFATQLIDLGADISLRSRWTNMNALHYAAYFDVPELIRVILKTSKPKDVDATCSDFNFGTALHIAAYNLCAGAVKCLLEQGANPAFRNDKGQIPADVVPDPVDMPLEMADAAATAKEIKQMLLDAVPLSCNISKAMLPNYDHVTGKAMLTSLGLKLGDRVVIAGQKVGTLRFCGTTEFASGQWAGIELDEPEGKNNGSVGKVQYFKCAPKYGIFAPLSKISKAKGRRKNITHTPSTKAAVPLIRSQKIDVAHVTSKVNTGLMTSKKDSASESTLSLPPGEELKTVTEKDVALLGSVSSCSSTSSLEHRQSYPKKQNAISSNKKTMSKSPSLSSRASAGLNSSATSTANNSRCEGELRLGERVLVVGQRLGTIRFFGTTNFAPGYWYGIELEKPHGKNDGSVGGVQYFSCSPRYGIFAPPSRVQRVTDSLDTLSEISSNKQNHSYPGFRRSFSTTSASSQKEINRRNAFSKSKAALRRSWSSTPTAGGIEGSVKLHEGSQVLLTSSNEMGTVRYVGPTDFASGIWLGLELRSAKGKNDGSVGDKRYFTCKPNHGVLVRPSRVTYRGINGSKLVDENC

A further assay deals with T2, CLTA (UniProt P09496).
T2 sequence: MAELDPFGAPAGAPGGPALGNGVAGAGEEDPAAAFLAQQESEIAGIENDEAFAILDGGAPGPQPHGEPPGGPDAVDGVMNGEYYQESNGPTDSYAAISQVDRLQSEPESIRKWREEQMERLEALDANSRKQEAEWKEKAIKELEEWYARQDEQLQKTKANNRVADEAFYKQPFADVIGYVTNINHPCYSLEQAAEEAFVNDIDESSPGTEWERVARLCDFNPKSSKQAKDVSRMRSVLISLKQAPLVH

For “GGGGACAGGGGTATGGGGAGGGG [G4-3 biotinylated (CtG)]”, the binding signal in the assay on CLDN2 (human) was -0.329 z-score; with CLIP4, 4.34 z-score; with CLTA, -0.331 z-score; with CLTB (human), -0.335 z-score; with CLUL1 (human) it was -0.321 z-score; with CNIH (human), -0.314 z-score. Further, the binding signal was -0.331 z-score in the assay with CNNM1 (human); -0.305 z-score in the assay on CNR2 (human); -0.335 z-score in the assay with COASY (human); -0.327 z-score in the assay with COBRA1 (human); -0.342 z-score in the assay with COG8 (human); -0.317 z-score in the assay on COMT (human). Also, the binding signal in the assay with COPZ1 (human) is -0.335 z-score; in the assay on COX4I2 (human), -0.334 z-score; with COX4NB (human) it was -0.309 z-score; in the assay on COX5B (human), -0.33 z-score; in the assay with CRABP2 (human), -0.306 z-score; in the assay on CRADD (human) it was -0.336 z-score. Moreover, the results for the binding signal in the assay on CRLF3 (human) and in the assay with CRYAA (human) were -0.335 z-score and -0.32 z-score, respectively.
